The assay concerns the target T1, ΔNp73α-TAP (human) (UniProt O15350).
T1 sequence: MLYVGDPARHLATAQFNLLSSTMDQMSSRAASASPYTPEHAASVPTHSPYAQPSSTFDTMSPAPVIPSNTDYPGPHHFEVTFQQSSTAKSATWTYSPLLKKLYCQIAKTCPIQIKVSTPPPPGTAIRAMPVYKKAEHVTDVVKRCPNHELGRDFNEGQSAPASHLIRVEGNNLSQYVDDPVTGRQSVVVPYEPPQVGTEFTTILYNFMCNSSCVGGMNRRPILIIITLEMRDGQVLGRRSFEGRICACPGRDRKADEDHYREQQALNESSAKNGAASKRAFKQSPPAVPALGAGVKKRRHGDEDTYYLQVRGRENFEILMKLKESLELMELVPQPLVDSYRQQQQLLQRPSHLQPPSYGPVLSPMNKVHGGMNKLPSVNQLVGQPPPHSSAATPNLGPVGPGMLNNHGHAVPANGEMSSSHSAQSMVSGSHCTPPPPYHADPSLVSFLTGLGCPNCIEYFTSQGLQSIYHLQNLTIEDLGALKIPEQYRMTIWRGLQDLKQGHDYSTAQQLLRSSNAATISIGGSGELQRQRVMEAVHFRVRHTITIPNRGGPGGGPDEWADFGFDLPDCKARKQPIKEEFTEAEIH
As to the kind of experiment: affinity purification with mass spectrometry; tandem affinity purification (IgG Sepharose, TEV cleavage, calmodulin Sepharose) of ΔNp73α-TAP from the nuclear soluble fraction of 38HK; LC-MS of elution fraction 2; TAP tag alone as control; hits enriched more than 10-fold.

Chains of the proteins cited; added tags and fusions are not shown.
UniProt Q16254: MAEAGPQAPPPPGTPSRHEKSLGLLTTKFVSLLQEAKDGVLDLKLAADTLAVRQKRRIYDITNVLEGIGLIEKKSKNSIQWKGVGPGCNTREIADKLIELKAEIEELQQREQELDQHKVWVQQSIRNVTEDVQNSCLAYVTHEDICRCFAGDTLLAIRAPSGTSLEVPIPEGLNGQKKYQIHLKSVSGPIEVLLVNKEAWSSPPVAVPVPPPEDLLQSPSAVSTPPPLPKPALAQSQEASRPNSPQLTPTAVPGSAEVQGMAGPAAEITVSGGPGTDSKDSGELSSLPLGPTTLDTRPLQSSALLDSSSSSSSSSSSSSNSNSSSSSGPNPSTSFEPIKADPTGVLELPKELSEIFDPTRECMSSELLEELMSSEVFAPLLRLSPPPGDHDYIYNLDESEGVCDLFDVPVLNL
UniProt Q09028: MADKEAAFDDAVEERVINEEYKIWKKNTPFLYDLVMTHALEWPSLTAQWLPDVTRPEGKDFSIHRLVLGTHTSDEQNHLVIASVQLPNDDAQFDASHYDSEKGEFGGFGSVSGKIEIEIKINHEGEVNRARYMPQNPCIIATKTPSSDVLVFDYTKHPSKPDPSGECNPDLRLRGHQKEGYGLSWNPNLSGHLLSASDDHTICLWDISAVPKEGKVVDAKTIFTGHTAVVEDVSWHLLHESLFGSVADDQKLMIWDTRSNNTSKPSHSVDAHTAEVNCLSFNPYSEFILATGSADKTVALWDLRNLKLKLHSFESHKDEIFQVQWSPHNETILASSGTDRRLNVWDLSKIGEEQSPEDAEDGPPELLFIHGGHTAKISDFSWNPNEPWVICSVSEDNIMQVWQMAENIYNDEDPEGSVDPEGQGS

No constants are given. Whether binding was seen depends on the method and setting. Binding seen in cells or lysates may run through a third protein. These calls come from enrichment with a bait or labelling near it, and not all partners need be listed. No binding means not detected with the bait.

With “HPV38 E6 oncoprotein (in 38HK) (human papillomavirus type 38)”, the binding result is on record as “no binding”.

Take “HPV38 E7 oncoprotein (in 38HK) (human papillomavirus type 38)”: the binding result is “no binding”.

For the substance “endogenous E2F4 (38HK) (from UniProt Q16254 1-413)”, the binding entry is reported as “binds”.

With “endogenous RBBP4 (38HK) (from UniProt Q09028 1-425)”, the binding result is on record as “no binding”.
